Results taken from article PMC10163288.
The list shows a part of the results.

B1: il2ra_site2_2erj_sap_28_mot_HHH_b1_02757_000000041_0001_41_57_H_._HHH_b1_03663_0001_0000600022_0000001_0_0001 (protein)
chain: SSSSDWLHRLYEILDRLTRLLEEGDEEEVERLLEELQRLAEETDTLSAEQFLEDLERKLRSSSSS
B2: il2ra_site2_2erj_normal_mot_76e6e8f7232a9e65eeaab5ff8ecb4c96_0001_000000231_0001_17_31_H_._HHH_b2_00823_0001_0000500020_0000001_1 (protein)
chain: SSSSSDEAERQVEELLEEAKRIEDPARAYAVLAEAARIALELEDEELEKEVSKLFTEIYSSSSSS
B3: il2ra_site2_2erj_sap_26_mot_HHH_b2_03173_af2_000000175_0001_41_57_H_._HHH_b1_04625_0001_0000100006_0000001_0_0001 (protein)
chain: SSSSDEEEEEVVRLLWEALRAHLEGDEEKAKELIEEAEELAKEANDPKLEEKVKMFASSLSSSSS
B4: il2ra_site1_2b5i_sap_11_mot_f5ff40796168375b462bec8614a1db4a_0001_1_000000138_0001_53_65_H_._HHH_b1_06660_af2_0001_0000100004_0000001_0_0001_af2pred_0001_af2pre … (protein)
chain: SSSSSDREEALELLREANELAKNGDDEEARRVLEQALELAEEGGDPALARLIRAALKLLGSSSSS
B5: il2ra_site1_3nfp_sap_7_mot_HHH_b2_00594_af2_000000186_0001_1_15_H_._HHH_b1_02490_0001_0001200022_0000001_0_0001_af2pred_0001_af2pred_1_swapped (protein)
chain: SSSSSALELLFEAARRLAELLDRGDEEEAERLLEEVARELRELGNEKAARQLERSFERFAKSSSS
B6: il2ra_site1_1z92_sap_21_mot_22370d59370c406a0c205a431f537cfa_0001_000000027_0001_1_14_H_._HHH_b1_05276_0001_0000300011_0000001_1_0001_af2pred_0001_af2pred_1_swa … (protein)
chain: TEVSQLIDEALEKKDPRLLEEAVEILAERFNIPPEKAKRLLEKLIKQIFPPEEQEILEELAKRVP
B7: il2ra_site1_1z92_sap_12_mot_3d499ac7f0d67033d193cd32a1d98c91_0001_af2_000000108_0001_54_65_H_._448c55fe706e6ec391655c6bc0ba6a29_0001_1_af2_0001_0000600020_00000 … (protein)
chain: SSSSSAKEYTLELIRALVRSLKRTGDPKVEERIRFALRNLRLLGDEEAVEEVEELLREAKSSSSS
B8: il2ra_site2_3nfp_normal_mot_HHH_b1_04762_000000120_0001_42_54_H_._HHH_b1_05779_0001_0000700015_0000001_0 (protein)
chain: SSSSSEVEEYIRAALLLVEEALEEGDPEAARRHLEMARKLAEDAKNEELKEEVERLEEELSSSSS
B9: il2ra_site1_2b5i_normal_mot_f5ff40796168375b462bec8614a1db4a_0001_1_000000138_0001_53_65_H_._HHH_b1_08714_af2_0001_0000500020_0000001_0_af2pred_dldesign_0_af2pr … (protein)
chain: SSSSSDDTDVVDVEELIEEAKKIEDENLRKKILILAERVARKAKDPRLEATLAEIRAALSSSSSS
B10: il2ra_site1_2b5i_sap_13_mot_0e5a94e4a5addaac739760efb25f0f5d_0001_000000180_0001_18_32_H_._HHH_b1_02875_0001_0000500014_0000001_0_0001 (protein)
chain: SSSSNREDTRALVRIVWRIRWEFGLDFEDARALAELAAELLDRGVSVEEIEELLRELAEELSSSS
B11: il2ra_site1_2b5i_sap_15_mot_HHH_b1_07314_000000139_0001_1_15_H_._HHH_b1_02094_af2_0001_0000200011_0000001_0_0001 (protein)
chain: SSSSSTQRTFEATLRLLEEALEEIDDEEVRQRVEELLKEAEEKNDIHLLREAMRIAQEYLSSSSS
B12: il2ra_site2_3nfp_sap_18_mot_HHH_b1_00239_000000199_0001_23_39_H_._84ae4b0559e896e2d49ce04ad7058360_0001_0001_0000300014_0000001_0_0001 (protein)
chain: SSSSSDDHEAYERVVKLLKEANHIEDEEEAREVLKEARELAEEFNSEVLRRSVEDVARALSSSSS
B13: il2ra_site1_1z92_normal_mot_3d621733409fa4d2bc95fa1761ba6d8e_0001_af2_000000005_0001_1_12_H_._HHH_b2_07461_af2_0001_0000200018_0000001_0 (protein)
chain: SSSSSEHSRKVFELMQRLNEAVRNGDEEEARELAEELLKLAEESGSKSYARLAEKVLEDLSSSSS
B14: il2ra_site1_2b5i_normal_mot_f5ff40796168375b462bec8614a1db4a_0001_1_000000138_0001_53_65_H_._HHH_b2_07752_0001_0000200011_0000001_0_af2pred_dldesign_0_af2pred (protein)
chain: SSSSENRRELLRELLERARALYEAGEKEEALKLLKMARRLAKKENDEETLKEIEELEKLLSSSSS
B15: il2ra_site2_2erj_sap_19_mot_HHH_b1_01555_af2_000000123_0001_22_39_H_._HHH_b2_02358_af2_0001_0000400024_0000001_0_0001_af2pred_0001_1_af2pred_swapped (protein)
chain: SSSSDEAEELLEEAKRLLEEGNPEEAEKVLREAATLAAELGDEELFREILKLLELVEELGSSSSS
B16: il2ra_site1_1z92_normal_mot_HHH_b1_03515_000000289_0001_1_19_H_._HHH_b1_05176_af2_0001_0000300060_0000001_0_af2pred_0001_af2pred (protein)
chain: SSSSSDTSIKKFVRVIAEIAGLSEEQKEQLEELAEELLEEGYSDREILEILNKLAAELHNSSSSS
B17: il2ra_site2_2erj_normal_mot_HHH_b1_04481_000000056_0001_1_18_H_._HHH_b1_03298_0001_0000600014_0000001_0 (protein)
chain: SSSSSSDIEELLEELEKLIEEGNPSEFLEVLAEAAELIRERNDEELAKRLNELWREFHSSSSSSS
B18: il2ra_site2_2erj_normal_mot_HHH_b2_06411_000000092_0001_40_56_H_._HHH_b1_05737_0001_0000100003_0000001_0 (protein)
chain: SSSSDLEEVYELAVEALRLLAEGNPEEAEEVLKKAREILEEAGNDEAVRFLEELFEMFERSSSSS

Target: il2ra, P01589
Assay: yeast display titration

Apparent Kd, inactive:
B1 no binding seen
B2 no binding seen
B3 no binding seen
B4 no binding seen
B5 no binding seen
B6 no binding seen
B7 no binding seen
B8 no binding seen
B9 no binding seen
B10 no binding seen
B11 no binding seen
B12 no binding seen
B13 no binding seen
B14 no binding seen
B15 no binding seen
B16 no binding seen
B17 no binding seen
B18 no binding seen

5 successive entries out of the list so far, for reference:
Apparent Kd, inactive:
B13 no binding seen
B14 no binding seen
B15 no binding seen
B16 no binding seen
B17 no binding seen
